Assay results as given in publication PMC10113200.

What was measured:
[1] = biological target: VEL3 C-terminal GFP fusion (Arabidopsis thaliana); assay: FRET or BRET; acceptor photobleaching FRET, eGFP donor and mCherry acceptor, transient expression in Nicotiana benthamiana leaves, imaged 3 days post-infiltration
[2] = biological target: VEL3 N-terminal GFP fusion (Arabidopsis thaliana); assay: as above
[3] = biological target: VERNALIZATION5/VIN3-LIKE 3 (VEL3), yeast two-hybrid fusion (Arabidopsis thaliana); assay: two-hybrid; GAL4 BD (pDEST32, bait) and AD (pDEST22, prey) fusions in yeast AH109; growth on SD-WLHA, SD-WLH and SD-WLH with 1 to 10 mM 3AT

Binder	binding [1]	binding [2]	binding [3]
HD2C, fluorescent fusion for FRET (protein, UniProt Q9LZR5 1-294) MEFWGVEVKNGKPLHLDPGLDRLVHISQVALGESKNNVTEPIQLYVTVGSDKLLIGTLSHEKFPQLSTEIVLERNFALSHTWKNGSVFFSGYKVDASDPEPEDLIDDQLEAAGFKAAPKSAAKQVNFQLPNEDVKAKQDDDADGSEEDSSDDDDSENSGDEEEEKVTAESDSEEDDSSDDEEDDSSEEETPKKPEEPKKRSAEPNSSKNPASNKKAKFVTPQKTDSKKPHVHVATPHPSKQAGKNSGGGSTGETSKQQQTPKSAGAFGCKSCTRTFTSEMGLQSHTKAKHSAAA	binds	binds	
HD2C, yeast two-hybrid fusion (protein, UniProt Q9LZR5 1-294) MEFWGVEVKNGKPLHLDPGLDRLVHISQVALGESKNNVTEPIQLYVTVGSDKLLIGTLSHEKFPQLSTEIVLERNFALSHTWKNGSVFFSGYKVDASDPEPEDLIDDQLEAAGFKAAPKSAAKQVNFQLPNEDVKAKQDDDADGSEEDSSDDDDSENSGDEEEEKVTAESDSEEDDSSDDEEDDSSEEETPKKPEEPKKRSAEPNSSKNPASNKKAKFVTPQKTDSKKPHVHVATPHPSKQAGKNSGGGSTGETSKQQQTPKSAGAFGCKSCTRTFTSEMGLQSHTKAKHSAAA			no binding
HDA19, fluorescent fusion for FRET (protein, UniProt O22446 1-501) MDTGGNSLASGPDGVKRKVCYFYDPEVGNYYYGQGHPMKPHRIRMTHALLAHYGLLQHMQVLKPFPARDRDLCRFHADDYVSFLRSITPETQQDQIRQLKRFNVGEDCPVFDGLYSFCQTYAGGSVGGSVKLNHGLCDIAINWAGGLHHAKKCEASGFCYVNDIVLAILELLKQHERVLYVDIDIHHGDGVEEAFYATDRVMTVSFHKFGDYFPGTGHIQDIGYGSGKYYSLNVPLDDGIDDESYHLLFKPIMGKVMEIFRPGAVVLQCGADSLSGDRLGCFNLSIKGHAECVKFMRSFNVPLLLLGGGGYTIRNVARCWCYETGVALGVEVEDKMPEHEYYEYFGPDYTLHVAPSNMENKNSRQMLEEIRNDLLHNLSKLQHAPSVPFQERPPDTETPEVDEDQEDGDKRWDPDSDMDVDDDRKPIPSRVKREAVEPDTKDKDGLKGIMERGKGCEVEVDESGSTKVTGVNPVGVEEASVKMEEEGTNKGGAEQAFPPKT	no binding	no binding	

No constants are given. Whether binding was seen depends on the method and setting. For some assays here: Binding seen in cells or lysates may run through a third protein. For some assays here: Binding can be weak; no strength is given. Where a sequence is shown, tags or fusion partners need not be part of it.
